# Results from PubChem BioAssay AID493014 (National Center for Advancing Translational Sciences (NCATS), 2011).
# The list shows a part of the results. Further columns of the screen follow, without active or inactive calls. The list favours compounds with an active or inconclusive main result. Words in brackets tell the shape of the fitted curve; partial curves, single points and poor fits give uncertain potencies.
# Assay: qHTS Assay to Find Inhibitors of Chronic Active B-Cell Receptor Signaling
# Conditions: ABC-DLBCL IkBa-CBG/CBR reporter, luminescence ratio (green luciferase fused to IkBa over red control in TMD8 lymphoma cells), 4 h
# Summary of the method: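 Cell line TMD8 (human ABC DLBCL), stably expressing tet-inducible CBG68-IkBa fusion and CBR; IMDM/0.5% FBS; cpd up to 46 uM; dox induction, 4 h, 37C/5% CO2; dual luminescence; green/red ratio; MG132 control.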
# [1] = measured here: CBR red luminescence, cell number
structure (smiles),measurement,setting,value
Brc1ccc(-c2noc(CCc3ccccc3)n2)o1,AC50,[1],"0.398 µM [rising, full curve, poor fit]"
COc1ccc(/C=N/NC(=O)c2cccc(OC(F)(F)C(F)F)c2)cc1O,AC50,[1],"20.6 µM [falling, single point]"
CCOC(=O)C(NC(=O)CCl)(Nc1sc(C)c(CC)c1C#N)C(F)(F)F (stereo unspecified),AC50,[1],"13 µM [falling, partial curve]"
O=C1c2ccccc2C(=O)N1CCC#Cc1ccc2cc(C3(O)CCCCC3)oc(=O)c2c1,AC50,[1],"1.64 µM [rising, full curve, poor fit]"
Cc1onc(-c2ccccc2Cl)c1C(=O)Nc1cccc2cccnc12,AC50,[1],"11.2 µM [falling, partial curve]"
COc1ccc(CN(Cc2cc3cc4c(cc3[nH]c2=O)OCO4)C(=O)NC2CCCCC2)cc1,AC50,[1],"1.03 µM [rising, partial curve, poor fit]"
Cc1ccc(NC(=O)CCSc2ccccc2)c(C)c1,AC50,[1],"35.5 µM [rising, single point]"
COc1ccccc1NC(=O)Nc1cccc(C)n1,AC50,[1],"2.24 µM [rising, full curve]"
O=C(CSc1ncnc2sc3c(c12)CCCC3)c1ccccc1,AC50,[1],"32.6 µM [rising, single point]"
O=C(Nc1cccnc1)c1ccc(-c2ccccc2)cc1,AC50,[1],"22.4 µM [falling, single point]"
O/N=C1\CC/C(=N\O)c2nn(-c3ccc(Cl)cc3Cl)nc21,AC50,[1],"35.5 µM [falling, single point]"
COc1ccc(NC(=O)C2C(c3ccccc3)C2(Cl)Cl)cc1 (stereo unspecified),AC50,[1],"6.31 µM [rising, single point]"
C=CCNC(=O)c1c(Br)cnn1-c1ccc(C)cc1,AC50,[1],"2.51 µM [rising, partial curve, poor fit]"
COc1cc(C(=O)Nc2ccc(Nc3ccccc3)cc2)cc(OC)c1OC,AC50,[1],"15.8 µM [falling, single point]"
CCc1c(C(=O)OCc2ccccc2)[nH]c(C)c1C,AC50,[1],"0.251 µM [rising, full curve, poor fit]"
CC(C)c1ccc(C2=CC(c3ccc(C(C)C)cc3)n3nnnc3N2)cc1 (stereo unspecified),AC50,[1],"0.355 µM [rising, partial curve, poor fit]"
COc1cc(CNC(=O)c2ccc(Cn3nc(C)c(Cl)c3C)o2)cc(OC)c1,AC50,[1],"20.6 µM [falling, single point]"
CCn1c(N2CCN(C(=O)/C=C/c3ccccc3)CC2)nc2ccccc21,AC50,[1],"11.2 µM [falling, partial curve, poor fit]"
O=Cc1ccc(-c2ccc(Cl)cc2Cl)[nH]1,AC50,[1],"35.5 µM [rising, single point]"
COc1ccc(-c2oc(=O)c3cc(OC)c(OC)cc3c2/C=C/c2ccc(OC(C)=O)cc2)cc1,AC50,[1],"4.61 µM [falling, single point]"
Cc1cc(NC(=O)CSc2nccn2-c2cccc(C)c2C)no1,AC50,[1],"11.2 µM [falling, partial curve, poor fit]"
O=C(CCl)N1c2ccccc2OCC1c1ccccc1 (stereo unspecified),AC50,[1],"11.6 µM [falling, single point]"
COc1ccccc1-c1cc(C(=O)N2CCN(S(=O)(=O)c3ccc(C)cc3)CC2)[nH]n1,AC50,[1],"3.98 µM [falling, full curve, poor fit]"
O=C(O)C(Cc1cc(Cl)ccc1Cl)Sc1nc2ccccc2[nH]1 (stereo unspecified),AC50,[1],"15.8 µM [falling, single point]"
Brc1ccc(Nc2nc(-c3cccnc3)cs2)cc1,AC50,[1],"35.5 µM [falling, single point]"
CCc1sc(C(=O)Nc2nccs2)cc1C,AC50,[1],"11.2 µM [falling, single point]"
O=C(O)Cc1ccc(N=Nc2c(O)c(C(=O)O)cc3ccccc23)cc1,AC50,[1],"7.08 µM [falling, partial curve, poor fit]"
O=C(NCc1ccco1)c1ccc2c(c1)C(=O)c1ccccc1-2,AC50,[1],"20.6 µM [falling, single point]"
Cc1noc(C)c1CSCC(=O)Nc1nc2ccc(F)cc2s1,AC50,[1],"20.6 µM [falling, single point]"
Sc1oc(-c2ccccc2)cc1C=Nc1ccccc1,AC50,[1],"6.51 µM [rising, single point]"
Cc1ccc2c(c1)C(=O)C(=O)N2Cc1ccc(Cl)cc1,AC50,[1],"23.1 µM [falling, partial curve, poor fit]"
same,AC50,measured here: IkBa-CBG green luminescence,"18.4 µM [falling, single point]"
O=C(CCN1C(=O)C2C3CC(C(Br)C3Br)C2C1=O)OCC(=O)c1cccc([N+](=O)[O-])c1 (stereo unspecified),AC50,[1],"7.94 µM [rising, partial curve, poor fit]"
O=C(Nc1nnc(-c2ccncc2)s1)Nc1ccccc1F,AC50,[1],"1 µM [falling, full curve]"
Fc1ccc(Nc2nc(NCc3ccco3)c3ccccc3n2)cc1,AC50,[1],"0.891 µM [rising, full curve]"
COc1ccccc1NC(=O)c1ccc(NC(=O)CSc2nc(N)cc(=O)[nH]2)cc1,AC50,[1],"5.17 µM [rising, partial curve, poor fit]"
O=C(O)C(=O)Cc1c[nH]c2ccccc12,AC50,[1],"5.17 µM [falling, partial curve, poor fit]"
Cc1ccc(NC(=O)C(C)c2cccc(C(=O)c3ccccc3)c2)cc1 (stereo unspecified),AC50,[1],"35.5 µM [falling, single point]"
CC(CN1CCNCC1)(NS(=O)(=O)c1ccccc1)c1ccccc1 (stereo unspecified),AC50,[1],"29.1 µM [falling, single point]"
CN1CCN(c2ccc(S(=O)(=O)N3CCCCC3)cc2NC(=O)c2ccc(C#N)cc2)CC1,AC50,[1],"6.51 µM [falling, partial curve, poor fit]"
CCOC(=O)Cn1c(=NC(=O)c2nc3ccccc3s2)sc2cc(S(N)(=O)=O)ccc21,AC50,[1],"2.91 µM [rising, partial curve, poor fit]"
N#Cc1c2n(c3c(=O)n(Cc4ccccc4Cl)cnc13)CCCCC2,AC50,[1],"5.62 µM [rising, single point]"
N=C1/C(=C\c2coc3ccccc3c2=O)C(=O)N=C2SC(c3ccncc3)=NN12,AC50,[1],"2.82 µM [rising, partial curve, poor fit]"
CCCCCC(=O)Nc1cccc(C2=NOC3(C2)C[C@H](C(N)=O)N(C(=O)c2ccccc2)C3)c1 (stereo partly specified),AC50,[1],"20 µM [rising, partial curve, poor fit]"
CCOC(=O)/C=C1\NC(C)(C)Cc2cc(OC)c(OC)cc21,AC50,[1],"35.5 µM [rising, single point]"
O=C(Cc1ccccc1)NCC(=O)OC(c1ccccc1)c1ccccc1,AC50,[1],"0.708 µM [rising, full curve, poor fit]"
CCOc1cccc2cc(C(=O)NCCC3=CCCCC3)c(=O)oc12,AC50,[1],"10 µM [falling, partial curve, poor fit]"
COC(=O)c1sc(=S)n(-c2cc(F)ccc2F)c1N,AC50,[1],"35.5 µM [rising, single point]"
CCOc1ccccc1NC(=O)CNC(=O)c1nn(-c2ccc(OC)c(OC)c2)c(=O)c2ccccc12,AC50,[1],"22.4 µM [falling, single point]"
COc1ccc(-c2nc(C#N)c(NCc3ccccc3Cl)o2)cc1OC,AC50,[1],"29.1 µM [falling, single point]"
Cc1cc(C)n(CC(O)Cn2c3ccc(Br)cc3c3cc(Br)ccc32)c(=O)n1 (stereo unspecified),AC50,[1],"9.2 µM [falling, partial curve, poor fit]"
C/C(=N\NC(=O)c1nnn(-c2nonc2N)c1-c1cccs1)c1ccc(C)cc1,AC50,[1],"7.08 µM [rising, full curve, poor fit]"
CC(=C\C(=O)O)/C(=C/c1ccccc1)C(=O)O,AC50,[1],"17.8 µM [rising, partial curve]"
CCc1ccc(OCC(=O)OCC(=O)c2ccc3c(c2)NC(=O)CO3)cc1,AC50,[1],"29.1 µM [rising, single point]"
CC(NC(=O)[C@H](NC(=O)[C@@H]1Cc2ccccc2CN1)c1ccccc1)c1ccccc1 (stereo partly specified),AC50,[1],"11.2 µM [falling, partial curve, poor fit]"
O=C(Nc1ccc(S(=O)(=O)N2CCCC2)cc1)c1ccc(Cl)nc1,AC50,[1],"14.6 µM [falling, partial curve]"
COc1ccccc1C(=O)Nc1nnc(-c2ccc(F)cc2)o1,AC50,[1],"0.0082 µM [falling, full curve, poor fit]"
CC(C)CCNC(=O)C(=O)Nc1ccccc1,AC50,[1],"2 µM [falling, full curve]"
CC(/C=N/NC(=O)c1ccc(Cn2cc([N+](=O)[O-])cn2)o1)=C\c1ccccc1,AC50,[1],"1.12 µM [falling, partial curve, poor fit]"
c1ccc(-c2ccc(-c3csnn3)cc2)cc1,AC50,[1],"11.2 µM [rising, partial curve, poor fit]"
CC(=O)c1ccc(Sc2ccccc2N)c([N+](=O)[O-])c1,AC50,[1],"8.91 µM [rising, partial curve, poor fit]"
CCOc1ccc(S(=O)(=O)NCCC(=O)OCC(=O)c2ccc[nH]2)cc1,AC50,[1],"1.26 µM [rising, full curve, poor fit]"
COc1cc(NC(=O)c2cc3c(Cl)nc4ccccc4c3s2)cc(OC)c1OC,AC50,[1],"0.517 µM [rising, full curve, poor fit]"
CC(C)(C)C(=O)C(Cl)C(=O)Nc1ccccc1 (stereo unspecified),AC50,[1],"0.1 µM [falling, full curve, poor fit]"
O=C(Nc1c(F)cc(F)cc1Br)c1cc(-c2ccco2)on1,AC50,[1],"0.562 µM [falling, full curve, poor fit]"
CCCCc1nnc(NC(=O)C=C(C)C)s1,AC50,[1],"32.6 µM [rising, single point]"

# Some of the entries so far, with bars between the fields.
structure (smiles) | measurement | setting | value
O=C(Nc1ccc(S(=O)(=O)N2CCCC2)cc1)c1ccc(Cl)nc1 | AC50 | [1] | 14.6 µM [falling, partial curve]
COc1ccccc1C(=O)Nc1nnc(-c2ccc(F)cc2)o1 | AC50 | [1] | 0.0082 µM [falling, full curve, poor fit]

# An excerpt of these results, as tab-separated lines:
structure (smiles)	measurement	setting	value
CCOc1ccc(S(=O)(=O)NCCC(=O)OCC(=O)c2ccc[nH]2)cc1	AC50	[1]	1.26 µM [rising, full curve, poor fit]
COc1cc(NC(=O)c2cc3c(Cl)nc4ccccc4c3s2)cc(OC)c1OC	AC50	[1]	0.517 µM [rising, full curve, poor fit]
CC(C)(C)C(=O)C(Cl)C(=O)Nc1ccccc1 (stereo unspecified)	AC50	[1]	0.1 µM [falling, full curve, poor fit]
